Measurements from “University of Dundee, Small-Polar-MMV Screening Library” (2021), ChEMBL document CHEMBL3988442.

Chains of the proteins cited; added tags and fusions are not shown. Residues count along the entry.
UniProt Q4DA54, 1-478: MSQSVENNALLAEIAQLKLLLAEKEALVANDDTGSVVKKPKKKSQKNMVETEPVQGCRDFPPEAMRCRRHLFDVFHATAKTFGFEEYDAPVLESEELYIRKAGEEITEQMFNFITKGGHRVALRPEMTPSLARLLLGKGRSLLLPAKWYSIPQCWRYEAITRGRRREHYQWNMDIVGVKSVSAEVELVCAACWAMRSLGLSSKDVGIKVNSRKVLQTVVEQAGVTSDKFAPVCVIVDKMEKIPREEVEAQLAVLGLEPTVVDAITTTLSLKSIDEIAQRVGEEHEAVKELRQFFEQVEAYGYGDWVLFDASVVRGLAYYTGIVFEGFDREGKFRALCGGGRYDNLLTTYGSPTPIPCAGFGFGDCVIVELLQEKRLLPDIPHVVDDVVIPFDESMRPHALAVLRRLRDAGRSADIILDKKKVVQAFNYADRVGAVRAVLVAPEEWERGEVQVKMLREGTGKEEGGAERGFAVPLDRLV
UniProt P9WPC5, whole entry: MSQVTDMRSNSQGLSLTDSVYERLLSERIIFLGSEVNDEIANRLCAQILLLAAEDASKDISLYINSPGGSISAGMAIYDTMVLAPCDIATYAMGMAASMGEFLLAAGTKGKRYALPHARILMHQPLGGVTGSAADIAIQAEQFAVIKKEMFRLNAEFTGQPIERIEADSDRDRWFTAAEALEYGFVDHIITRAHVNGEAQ
UniProt P9WPC3, whole entry partner: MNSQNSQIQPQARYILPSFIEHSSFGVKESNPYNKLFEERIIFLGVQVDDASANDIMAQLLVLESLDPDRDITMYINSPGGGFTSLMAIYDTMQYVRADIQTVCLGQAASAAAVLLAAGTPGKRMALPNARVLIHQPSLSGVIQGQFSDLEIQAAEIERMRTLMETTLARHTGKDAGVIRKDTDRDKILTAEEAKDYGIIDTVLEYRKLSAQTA
UniProt Q8IDJ8, 1-583: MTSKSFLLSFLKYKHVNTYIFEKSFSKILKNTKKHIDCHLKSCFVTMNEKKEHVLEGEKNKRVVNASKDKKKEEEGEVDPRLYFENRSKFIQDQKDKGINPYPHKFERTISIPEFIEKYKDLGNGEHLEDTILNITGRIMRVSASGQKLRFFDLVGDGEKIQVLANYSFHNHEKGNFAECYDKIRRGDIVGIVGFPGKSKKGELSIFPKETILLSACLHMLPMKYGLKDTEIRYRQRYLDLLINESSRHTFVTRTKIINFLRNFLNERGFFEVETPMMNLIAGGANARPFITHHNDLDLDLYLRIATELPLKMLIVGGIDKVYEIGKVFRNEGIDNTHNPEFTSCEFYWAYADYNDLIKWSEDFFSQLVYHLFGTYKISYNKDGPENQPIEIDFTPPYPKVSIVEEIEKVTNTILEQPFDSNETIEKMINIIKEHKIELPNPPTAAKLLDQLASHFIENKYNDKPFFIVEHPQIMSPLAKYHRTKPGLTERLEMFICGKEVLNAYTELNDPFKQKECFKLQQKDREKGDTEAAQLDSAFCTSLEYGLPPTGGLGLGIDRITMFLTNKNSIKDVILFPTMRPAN

A: 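Cell assay of Leishmania donovani living inside macrophages; the read-out is not stated. Concentration: 30 µM. The record gives no direction; compounds that gave an IC50 in retests scored well above the rest, so higher reads as stronger inhibition. About 69,000 compounds were tested under these conditions; 1.5% (about 1,000) showed 50% or more at least once.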
B: 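Enzyme assay of histidyl-tRNA synthetase; the read-out is not stated. Target: Histidine-tRNA ligase, Trypanosoma cruzi CL Brener (UniProt Q4DA54). Concentration: 30 µM. Direction is inferred from retests: higher values go with stronger inhibition. Size under these conditions: about 69,000 compounds, about 31 of them at 50% or above in at least one test.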
C: 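Protease assay of ClpP1P2, read by the AMC dye that it sets free. Target: ClpP1P2, Mycobacterium tuberculosis (UniProt P9WPC5 and UniProt P9WPC3). Concentration: 50 µM. Higher reads as stronger inhibition, judged from the few compounds that gave an IC50. Most other retested compounds had strongly negative values. About 69,000 compounds were tested under these conditions; 0.015% (about 10) showed 50% or more at least once.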
D: 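Assay of Toxoplasma gondii numbers, read through their beta-galactosidase reporter with a colour substrate. Tested at 10 µM. Higher reads as fewer parasites (inferred from which compounds were picked for retests). Size under these conditions: about 67,000 compounds, about 260 of them at 50% or above in at least one test.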
E: 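Enzyme assay of the cytosolic lysyl-tRNA synthetase in 384-well plates, read by luminescence. Target: Lysine-tRNA ligase, Plasmodium falciparum 3D7 (UniProt Q8IDJ8). Concentration: 30 µM. Direction is inferred from only a few compounds that gave an IC50; most scored high, so higher reads as stronger inhibition. Size under these conditions: about 69,000 compounds, about 49 of them at 50% or above in at least one test.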

Values are the deposited “Percent Effect”, in %.
The record does not define 0% and 100%; most values in the screen are far below 50% and negative numbers occur (in some assays of this library far below -100).
This is an unselected part of the compounds tested.
Two or more numbers in one place are separate tests of the same structure; such repeats can differ widely.
A dash means the value is not listed here; it may have been measured.

With Cn1ncc2c(=O)[nH]c(CN3CCc4sccc4C3)nc21 the screen gave A: 13.57%; B: 4.678%; C: -19.41%; D: -30.92%; E: 0.8568%.
With CN(C)C(=O)CS(=O)(=O)Cc1cc(Cl)c2c(c1)OCCCO2 the screen gave A: 1.565%; B: 3.788%; C: 9.011%; D: -6.842%; E: -0.6942%.
With Cc1ccc(CNC(=O)CCSCc2csc(C)n2)cn1 the screen gave A: 27.29%; B: 2.256%; C: 2.753%; E: 3.543%.
With Cc1nnc(N2CC[C@@H](OCC3CC3)[C@@H](Cc3ccccc3)C2)s1.O=C(O)C(F)(F)F the screen gave A: 35.34%; D: 14.41%.
With COCCn1c(CN2CCCCO2)cnc1S(=O)(=O)CC1CCCCC1 the screen gave A: 19.33%; B: -1.345%; C: -12.46%; D: 10.84%; E: 4.859%.
With FC(F)(F)c1ccc(-n2ccnc2-c2cc3n(n2)CCNC3)cn1 the screen gave A: -31.22%; B: 3.797%; C: -13.06%; D: -0.194%; E: 1.663%.
With COc1ccc(Nc2nc3c(C)nn(C)c3c(=O)n2C)cc1 the screen gave A: -71.26%; B: 2.632%; C: 11.08%; D: 8.6%; E: -1.231%.
With CC(C)NC1CCc2c(ccc(=O)n2CCN2CCOCC2)C1 (stereo not drawn) the screen gave B: -1.604%; C: -2.002%; E: 4.091%.
With O=C(O)C(F)(F)F.[H][C@@]12CN(C(=O)c3ccccc3)CCO[C@]1([H])CN(c1cnccn1)C2 the screen gave A: 30.7%; D: 1.117%.
With O=C(O)C1CCN(c2nc3c(-c4ccccc4F)csc3c(=O)[nH]2)CC1 the screen gave A: 14.8% and 11.22%; B: 5.155%; C: 2.19%; D: -3.089%; E: 10.15%.
With COC(=O)[C@H](CC(C)C)NC(=O)c1snnc1-c1ccc(OC)cc1 the screen gave A: -40.42%; B: 3.627%; C: -12.67%; D: 4.904%; E: -0.834%.
With c1ccc(OC[C@H]2CCC[C@]23CN(Cc2nccs2)CCO3)nc1 the screen gave A: 10.92%; B: 6.011%; C: -4.197%; D: -7.82%; E: -0.7507%.
With Cc1ncnc2c1CCN(C(=O)Cc1cccc(F)c1)CC2 the screen gave A: 25.32%; B: 10.13%; C: -2.958%; D: 6.419%; E: 7.563%.
With Cn1cc2ncn(CCCOc3cccnc3)c(=O)c2n1 the screen gave A: 2.63%; B: 8.861%; C: -0.3616%; D: -4.592%; E: -0.4751%.
With COc1ncc(C2(O)CCN(Cc3c(F)cccc3F)CC2)c(OC)n1 the screen gave B: 7.527%; C: 5.287%; E: -4.023%.

2 of the entries, repeated:

SMILES,A,B,C,D,E
COc1ccc(Nc2nc3c(C)nn(C)c3c(=O)n2C)cc1,-71.26%,2.632%,11.08%,8.6%,-1.231%
Cc1ccc(CNC(=O)CCSCc2csc(C)n2)cn1,27.29%,2.256%,2.753%,-,3.543%